Data taken from publication PMC3388046.
These are yes or no findings as the source states them, for the method shown.

Target: recombinant uPAR (UniProt Q03405)
Test: far-Western, overlay or dot blot; ligand blot: 2 µg of recombinant proteins electrophoresed on SDS-PAGE, blotted and probed with ferritin; both purified

- binding: no binding
Substance: spleen ferritin (from UniProt P02794 1-183; P02792 1-175) (complex)
